{"source": "PubChem BioAssay AID1508597 (Cure First, 2020)", "test": "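Survival screen with siRNA in ovarian cancer cells derived from patients, with or without rucaparib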 (primary screen)", "cells": "human ovarian carcinoma lines grown from tumours: OCI-P5x (papillary serous) and OCI-C5x (clear cell)", "knock-down reagent": "siRNA pool against human genes, 1.25 pmol siRNA per well", "time to read-out": "72 h or 96 h, depending on the cell culture", "treatment": "rucaparib 20 µM (about IC30) or vehicle, present until read-out", "rucaparib or vehicle": "Vehicle", "cell line": "OCI-P5x (serous)", "read-out": "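Luminescent ATP-based viability assay read 72 or 96 h after transfection, depending on culture, given as normalised percent viability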", "direction": "viability, normalised: higher = more viable cells remaining", "rule for the call": "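Active when normalised viability falls below 80 percent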", "calls": "active = viability under 80%; inactive = viability 80% or more", "note": "This is a random part of the about 2,100 reagents, in one setting of the screen. 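Calls flag viability under 80% in either arm, not effects specific to rucaparib; the reference for percent is not stated.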 Some reagents were tested in more than one well and are listed for each. Not stated in the record: the 100% reference."}
The first 2 entries, to show the layout:
{"Gene": "STK36", "technical replicate": "1", "viability, normalised (%)": 91.2, "Outcome": "inactive"}
{"Gene": "STK36", "technical replicate": "2", "viability, normalised (%)": 71.4, "Outcome": "active"}

The list itself, from the start:
{"Gene": "STK36", "technical replicate": "1", "viability, normalised (%)": 91.2, "Outcome": "inactive"}
{"Gene": "STK36", "technical replicate": "2", "viability, normalised (%)": 71.4, "Outcome": "active"}
{"Gene": "STK36", "technical replicate": "3", "viability, normalised (%)": 88, "Outcome": "inactive"}
{"Gene": "DAP3", "technical replicate": "1", "viability, normalised (%)": 60.4, "Outcome": "active"}
{"Gene": "DAP3", "technical replicate": "2", "viability, normalised (%)": 61.6, "Outcome": "active"}
{"Gene": "DAP3", "technical replicate": "3", "viability, normalised (%)": 71.7, "Outcome": "active"}
{"Gene": "ENOSF1", "technical replicate": "1", "viability, normalised (%)": 72.4, "Outcome": "active"}
{"Gene": "ENOSF1", "technical replicate": "2", "viability, normalised (%)": 106, "Outcome": "inactive"}
{"Gene": "ENOSF1", "technical replicate": "3", "viability, normalised (%)": 110, "Outcome": "inactive"}
{"Gene": "YES1", "technical replicate": "1", "viability, normalised (%)": 69.2, "Outcome": "active"}
{"Gene": "YES1", "technical replicate": "1", "viability, normalised (%)": 96.2, "Outcome": "inactive"}
{"Gene": "YES1", "technical replicate": "2", "viability, normalised (%)": 72.7, "Outcome": "active"}
{"Gene": "YES1", "technical replicate": "2", "viability, normalised (%)": 77.9, "Outcome": "active"}
{"Gene": "YES1", "technical replicate": "3", "viability, normalised (%)": 66.6, "Outcome": "active"}
{"Gene": "YES1", "technical replicate": "3", "viability, normalised (%)": 82.2, "Outcome": "inactive"}
{"Gene": "UBE2B", "technical replicate": "1", "viability, normalised (%)": 94.4, "Outcome": "inactive"}
{"Gene": "UBE2B", "technical replicate": "1", "viability, normalised (%)": 68.5, "Outcome": "active"}
{"Gene": "UBE2B", "technical replicate": "2", "viability, normalised (%)": 85.8, "Outcome": "inactive"}
{"Gene": "UBE2B", "technical replicate": "2", "viability, normalised (%)": 74.7, "Outcome": "active"}
{"Gene": "UBE2B", "technical replicate": "3", "viability, normalised (%)": 73.7, "Outcome": "active"}
{"Gene": "UBE2B", "technical replicate": "3", "viability, normalised (%)": 107, "Outcome": "inactive"}
{"Gene": "NFRKB", "technical replicate": "1", "viability, normalised (%)": 61, "Outcome": "active"}
{"Gene": "NFRKB", "technical replicate": "2", "viability, normalised (%)": 70.8, "Outcome": "active"}
{"Gene": "NFRKB", "technical replicate": "3", "viability, normalised (%)": 89.5, "Outcome": "inactive"}
{"Gene": "ACVR1B", "technical replicate": "1", "viability, normalised (%)": 105, "Outcome": "inactive"}
{"Gene": "ACVR1B", "technical replicate": "2", "viability, normalised (%)": 92.8, "Outcome": "inactive"}
{"Gene": "ACVR1B", "technical replicate": "3", "viability, normalised (%)": 98.1, "Outcome": "inactive"}
{"Gene": "ASXL2", "technical replicate": "1", "viability, normalised (%)": 89.5, "Outcome": "inactive"}
{"Gene": "ASXL2", "technical replicate": "2", "viability, normalised (%)": 95.4, "Outcome": "inactive"}
{"Gene": "ASXL2", "technical replicate": "3", "viability, normalised (%)": 101, "Outcome": "inactive"}
{"Gene": "CENPO", "technical replicate": "1", "viability, normalised (%)": 81.2, "Outcome": "inactive"}
{"Gene": "CENPO", "technical replicate": "2", "viability, normalised (%)": 65.1, "Outcome": "active"}
{"Gene": "CENPO", "technical replicate": "3", "viability, normalised (%)": 75.5, "Outcome": "active"}
{"Gene": "YTHDC2", "technical replicate": "1", "viability, normalised (%)": 71, "Outcome": "active"}
{"Gene": "YTHDC2", "technical replicate": "2", "viability, normalised (%)": 67.9, "Outcome": "active"}
{"Gene": "YTHDC2", "technical replicate": "3", "viability, normalised (%)": 88.4, "Outcome": "inactive"}
{"Gene": "EYA1", "technical replicate": "1", "viability, normalised (%)": 68.5, "Outcome": "active"}
{"Gene": "EYA1", "technical replicate": "2", "viability, normalised (%)": 74.2, "Outcome": "active"}
{"Gene": "EYA1", "technical replicate": "3", "viability, normalised (%)": 66.7, "Outcome": "active"}
{"Gene": "HSD17B4", "technical replicate": "1", "viability, normalised (%)": 81.9, "Outcome": "inactive"}
{"Gene": "HSD17B4", "technical replicate": "2", "viability, normalised (%)": 92.5, "Outcome": "inactive"}
{"Gene": "HSD17B4", "technical replicate": "3", "viability, normalised (%)": 90.7, "Outcome": "inactive"}
